Results: PubChem BioAssay AID2551 (National Center for Advancing Translational Sciences (NCATS), 2010)
Values joined by “and” are separate entries in the source; they are usually repeats but may differ in a detail not shown here. Identical values can stand only once. Hit rate of the full screen: of about 310,000 compounds, about 17,000 (5.5%) were called active. Inconclusive means that the source gave no clear call. Such entries were picked first, then a sample of the others. Calls follow the shape of the dose curve; as a rule, active = well fitted inhibition curve with a large enough effect; inconclusive = small, poorly fitted or top-dose-only effect, or effect the other way; inactive = no such curve, though single readings can be large or run the other way. Potencies of inconclusive entries are doubtful fits and often do not repeat.

Protein sequences, listed by entry. Tags and fused reporters are not part of them. Lines headed by an entry give the natural chain unless they say otherwise; changes in a name come on top.
UniProt P51450: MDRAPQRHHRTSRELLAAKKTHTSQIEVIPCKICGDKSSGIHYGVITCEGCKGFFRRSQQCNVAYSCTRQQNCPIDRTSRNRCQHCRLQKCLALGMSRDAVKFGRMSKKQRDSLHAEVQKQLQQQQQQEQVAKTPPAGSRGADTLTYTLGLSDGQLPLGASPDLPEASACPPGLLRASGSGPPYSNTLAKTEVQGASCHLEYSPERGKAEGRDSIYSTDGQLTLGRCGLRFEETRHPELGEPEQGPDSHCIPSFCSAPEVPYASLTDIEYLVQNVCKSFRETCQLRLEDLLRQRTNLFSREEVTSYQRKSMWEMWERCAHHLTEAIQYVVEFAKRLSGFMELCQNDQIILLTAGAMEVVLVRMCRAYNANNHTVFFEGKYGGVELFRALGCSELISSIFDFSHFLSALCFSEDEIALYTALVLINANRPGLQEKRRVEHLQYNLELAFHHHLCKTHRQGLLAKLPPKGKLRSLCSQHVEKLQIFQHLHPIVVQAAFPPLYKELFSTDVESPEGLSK

molecular target: Nuclear receptor ROR-gamma (Mus musculus) (UniProt P51450); experiment: qHTS for inhibitors of ROR gamma transcriptional activity; conditions: Drosophila S2 Gal4-RORgamma UAS-luciferase reporter, 20 h; activity change, negative = inhibition: at 53.6 µM (top of the series); also: nearly all actives have a fitted effect of over 60% in size
In short: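 Stably transfected Drosophila Schneider cells are the test system, with ROR gamma fused to Gal4 and luciferase under UAS control; luminescence is read after 20 hr of 700 uM copper sulfate induction at ambient temperature.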
% is scaled to controls: 0 for no effect and ±100 for the full control effect; potency is read from the fitted curve at half-maximal effect.

SMILES	activity change, negative = inhibition	Potency
COc1ccccc1CN(Cc1cc2cc(C)cc(C)c2[nH]c1=O)Cc1nnnn1CC1CCCO1 (centres undefined)	inconclusive: 54% [activator]	
COc1ccc(-c2nc3cccc(C)n3c2NCc2ccco2)cc1OC		inconclusive: 35.5 µM [inhibitor, single point]
CCOC(=O)c1ccc(Oc2nc(OC)cc(OC)n2)cc1		inactive
Cc1ccc(Nc2nc(N)nc(CSC(=S)N3CCOCC3)n2)c(C)c1		inconclusive: 35.5 µM [activator, partial curve, poor fit]
Cc1ccn2cc(-c3cccc([N+](=O)[O-])c3)nc2c1		active: 10 µM
Cc1ccccc1Cn1nnc(-c2cccc(C(=O)O)c2)n1		inconclusive: 0.158 µM [activator, full curve, poor fit]
O=C(O)c1nn2cc(CCO)cnc2c1Cl		inconclusive: 11.2 µM [inhibitor, partial curve, poor fit]
CC(C)(C)C(=O)Nc1ccc(C(=O)Nc2cc(NC(=O)c3ccc(NC(=O)C(C)(C)C)cc3)cc(C(=O)O)c2)cc1		inconclusive: 22.4 µM [activator, partial curve, poor fit]
O=C(CSc1ncccn1)N1CCN(S(=O)(=O)c2ccccc2)CC1		inactive
Cc1nc2ccccc2c2c1CC(C)S2 (centres undefined)		inconclusive: 22.4 µM [inhibitor, single point]
COC(=O)Nc1ncc(CN2C(=O)c3ccccc3C2=O)s1		inconclusive: 3.98 µM [inhibitor, single point]
CCOCCCn1c(-c2ccc(Cl)cc2)n[nH]c1=S		active: 5.01 µM
Cc1ccc(S(=O)(=O)Nc2cccc3cccnc23)c([N+](=O)[O-])c1		active: 891 nM and active: 794 nM
O=C(CCc1nnc(-c2ccsc2)o1)N1CCc2c(Cl)cccc2C1		inconclusive: 11.2 µM [activator, partial curve]
NC(=O)C1CCN(CC(=O)Nc2cccc(C(=O)Nc3cccc(C(F)(F)F)c3)c2)CC1		inconclusive: 11.2 µM [activator, single point]
CN(Cc1nc(-c2ccncc2)no1)S(=O)(=O)c1ccccc1		active: 2.51 µM
COc1ccc(N2CCN(c3nc4cc(C)ccc4cc3C=O)CC2)cc1		inconclusive: 12.6 µM [activator, partial curve]
CC(=O)OC1CC[C@]2(C)C(CC[C@@]3(C)C2C(=O)C=C2C4C(C)C(C)CC[C@@]4(C(=O)O)CCC23C)C1(C)C (some centres undefined)		active: 0.631 µM
CCOc1ccc(NC(=S)Nc2ccc(F)cc2)cc1		active: 12.6 µM
Cc1[nH]c2ccccc2c1C(=O)C(=O)Nc1ccc2c(c1)OCO2		inconclusive: 7.94 µM [activator, partial curve]
Cc1c(Cl)cccc1NC(=S)NC(=O)CCN1C(=O)c2ccccc2C1=O		active: 15.8 µM
Cc1ccc(-n2c(C)nn(-c3ncc(C(F)(F)F)cc3Cl)c2=O)cc1		inconclusive: 35.5 µM [activator, single point]
COc1ccccc1NC(=S)N(Cc1ccccc1)Cc1ccccn1		active: 11.2 µM
O=C(C1CC1)N(Cc1nc2ccccc2c(=O)[nH]1)Cc1cccs1		inconclusive: 35.5 µM [inhibitor, single point]
CCN(c1cccc(C)c1)S(=O)(=O)c1c(C)[nH]c(=O)[nH]c1=O		inactive

SMILES	activity change, negative = inhibition	Potency
O=C(c1ccc2c(c1)OCO2)N1CCN=C1SCc1ccccc1		inconclusive: 3.55 µM [activator, partial curve]
O=C(c1cc(COc2cccc(C(F)(F)F)c2)on1)N1C[C@H]2CC[C@H]1C2		inconclusive: 7.08 µM [activator, partial curve]
Cc1ccc(S(=O)(=O)N(CC(=O)NCc2ccccn2)c2ccc(Cl)cc2)cc1		inactive
COc1ccc(CC(=O)O/N=C(\N)c2cccc([N+](=O)[O-])c2)cc1		inconclusive: 0.251 µM [activator, full curve, poor fit]
O=C(NCc1n[nH]c(=S)n1-c1ccccc1)c1ccc(S(=O)(=O)N2CCOCC2)cc1		inactive
CCOC(=O)c1c(C)n(C)c2cc(Br)c(O)c(O)c12		inactive
CC1CN(S(=O)(=O)c2cccc(C(=O)OCC(=O)c3cccs3)c2)CC(C)O1 (centres undefined)		inactive
CC1=CC(C)(C)Nc2ccc(OC(=O)CN3C(=O)CCC3=O)cc21		active: 5.62 µM
CCn1cc(/C=N/NC(=O)c2cc3c(ccc4ccccc43)o2)c2ccccc21		active: 7.08 µM
O=C(Nc1cccc(Cl)c1)Nc1nccs1		inactive
Cc1cc(C)cc(NC(=S)NCCSc2ccc(Cl)cc2)c1		active: 2.82 µM
COc1ccc(Cl)cc1C(=O)OCC(=O)NCCNC(=O)COC(=O)c1cc(Cl)ccc1OC		inactive
Cc1cccc2sc(NNC(=O)C3=COCCO3)nc12		active: 2.24 µM
O=C(NC(=S)Nc1cccc(NC(=S)NC(=O)c2ccco2)n1)c1ccco1		active: 0.0891 µM
COc1cccc(NC(=O)CCC(=O)Nc2cccc(OC)c2)c1		inactive
c1ccc(-c2onc3cc4c(cc23)OCCO4)cc1		inconclusive: 0.251 µM [activator, full curve, poor fit]
COc1ccc(C(=O)CC(=O)C(=O)Nc2ccccc2C(F)(F)F)cc1		active: 6.31 µM
O=C(OCc1nc2ccccc2s1)c1cc2ccccc2oc1=O		inconclusive: 20 µM [activator, single point]
Cc1ccnc(N2C(=O)c3ccccc3C2O)c1 (centres undefined)		inconclusive: 2.82 µM [activator, single point]
COc1ccccc1CN(Cc1nc2ccccc2c(=O)[nH]1)C(=O)Nc1ccc(C)cc1		inconclusive: 35.5 µM [inhibitor, single point]
O=C(N/N=C/c1cccnc1)c1cc(Br)ccc1O		inconclusive: 14.1 µM [inhibitor, single point]
Cc1cc(C(=O)N/N=C/c2ccccc2)c(C)o1		inactive
O=[N+]([O-])c1ccc(Cl)c(CN2CCN(c3ncccn3)CC2)c1		inactive
O=C(c1cnccn1)N1CCC2(CCCN(C(c3ccccc3)c3ccccc3)C2)CC1		inactive
CCc1ccc(Cc2cnc(NC(=O)C3=NCCN3)s2)cc1		active: 7.08 µM

SMILES	activity change, negative = inhibition	Potency
CCc1cc(=O)oc2c3c(cc(OCC(=O)Nc4cccnc4)c12)OC(C)(C)CC3		inconclusive: 20 µM [activator, single point]
O=C(CSc1ncccn1)n1c2c(c3ccccc31)CCCC2		inconclusive: 8.91 µM [activator, partial curve]
COc1ccc(C(C#N)N2N=C(c3ccccc3)CC2c2ccccc2)cc1OC (centres undefined)		inconclusive: 35.5 µM [inhibitor, single point]
CN1CCN(c2ncc3nc(CCc4ccccc4)c(=O)n(CCC#N)c3n2)CC1		inactive
O=C(CCCn1c(=S)[nH]c2cc3c(cc2c1=O)OCO3)N1CCN(c2ccccn2)CC1		active: 12.6 µM
Cc1ccc(NC(=O)CCC(=O)OCC(=O)c2ccc(-c3ccccc3)cc2)cc1		inconclusive: 7.94 µM [inhibitor, partial curve]
COc1ccc(C2CC(c3cccs3)=NN2C(=O)CSc2nc3c(cnn3-c3ccccc3)c(=O)[nH]2)cc1 (centres undefined)		inconclusive: 12.6 µM [activator, single point]
N#CC1=C(N)Oc2c(sc3ccccc23)C1c1ccco1 (centres undefined)		inconclusive: 0.891 µM [activator, single point]
COc1ccc(NC(=O)C2CCCN2S(=O)(=O)c2ccc3c(c2)CCC(=O)N3)c(OC)c1 (centres undefined)		inconclusive: 15.8 µM [activator, single point]
COC(=O)c1ccc(COc2ccccc2/C=C(\C#N)C(=O)Nc2c(C)cc(C)cc2C)cc1		inconclusive: 14.1 µM [inhibitor, single point]
COc1ccc(-c2cc3nc(C)cc(N4CC(C)CC(C)C4)n3n2)cc1 (centres undefined)		inconclusive: 35.5 µM [inhibitor, single point]
Cc1ccc(Cn2nnc3c(=O)n(CC(=O)NCc4ccc5c(c4)OCO5)cnc32)cc1		inconclusive: 1 µM [activator, full curve]
S=c1[nH]nc(COc2ccc(Cl)cc2)n1-c1ccccc1		active: 3.98 µM
COc1ccccc1N1CCN(C2CCN(S(=O)(=O)c3ccc4ccccc4c3)CC2)CC1		inconclusive: 11.2 µM [activator, partial curve]
Cc1cc2[nH]c(=O)c(=O)[nH]c2cc1S(=O)(=O)Nc1ccccc1F		inconclusive: 3.16 µM [activator, partial curve]
CCOC(=O)c1cc(-c2ccccc2)sc1NC(=O)COC(=O)c1cccc(S(N)(=O)=O)c1		inconclusive: 12.6 µM [inhibitor, partial curve]
CCCCCCn1c(SCC(=O)Nc2cc(C)on2)nc2ccccc2c1=O		active: 3.98 µM
Cc1ccc(NC(=S)N(CCN(C)C)C(C)c2ccco2)cc1Cl (centres undefined)		active: 12.6 µM
COc1ccccc1-c1cc(C(F)(F)F)nc(S(=O)(=O)CCCC(=O)Nc2cc(C)on2)n1		active: 11.2 µM
COC(=O)C1=C(C)NC(=O)NC1c1cn(-c2ccccc2)nc1-c1cccs1 (centres undefined)		inactive
Oc1ccc(-n2nnnc2SCc2c(F)cccc2Cl)cc1		inactive
CC1CCC2(CC1)OCC1(CCC3(COC4(CCC(C)CC4)OC3)C1=O)CO2 (centres undefined)		inactive
CCOC(=O)N1CCC(=NNC(=O)c2cc3ccccc3cc2O)CC1		active: 12.6 µM
O=C1CCCN2N=C(SCC(=O)Nc3cccc(C(F)(F)F)c3)SC2=N1		inactive
